Two sequences from article PMC5006282 can be followed below.

Sequences of proteins named here, by UniProt entry; tags and fusion partners are left off. A change or cut given only in a name is not applied to a line headed by its entry. Residues count along the entry.
UniProt P09874, 2-1014: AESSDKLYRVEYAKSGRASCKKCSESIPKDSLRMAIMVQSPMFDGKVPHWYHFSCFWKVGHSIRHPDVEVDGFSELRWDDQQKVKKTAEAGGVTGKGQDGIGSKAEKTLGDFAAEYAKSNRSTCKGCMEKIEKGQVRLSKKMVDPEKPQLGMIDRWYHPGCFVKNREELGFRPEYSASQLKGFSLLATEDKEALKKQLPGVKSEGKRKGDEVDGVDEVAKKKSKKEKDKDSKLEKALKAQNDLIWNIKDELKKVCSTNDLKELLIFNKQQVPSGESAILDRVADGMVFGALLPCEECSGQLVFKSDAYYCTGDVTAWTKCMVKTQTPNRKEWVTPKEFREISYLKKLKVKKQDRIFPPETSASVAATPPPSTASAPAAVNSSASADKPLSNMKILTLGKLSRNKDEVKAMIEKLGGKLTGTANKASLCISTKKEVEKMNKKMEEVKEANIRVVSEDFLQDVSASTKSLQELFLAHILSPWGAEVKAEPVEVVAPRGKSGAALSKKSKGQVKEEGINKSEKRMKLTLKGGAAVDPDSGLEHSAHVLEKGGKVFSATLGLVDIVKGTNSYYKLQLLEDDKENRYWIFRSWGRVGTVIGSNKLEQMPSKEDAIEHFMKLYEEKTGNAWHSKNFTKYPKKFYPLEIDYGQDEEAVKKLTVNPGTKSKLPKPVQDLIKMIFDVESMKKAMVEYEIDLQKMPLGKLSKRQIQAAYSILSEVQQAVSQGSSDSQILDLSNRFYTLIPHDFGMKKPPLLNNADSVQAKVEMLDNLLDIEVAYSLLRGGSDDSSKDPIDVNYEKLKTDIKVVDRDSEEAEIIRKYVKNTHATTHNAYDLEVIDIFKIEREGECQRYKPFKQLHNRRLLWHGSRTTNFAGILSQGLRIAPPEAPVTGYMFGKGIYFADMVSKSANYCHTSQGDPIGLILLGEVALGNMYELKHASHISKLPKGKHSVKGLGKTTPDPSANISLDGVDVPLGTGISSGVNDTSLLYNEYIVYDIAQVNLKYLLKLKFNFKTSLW
UniProt Q96EK4, whole entry: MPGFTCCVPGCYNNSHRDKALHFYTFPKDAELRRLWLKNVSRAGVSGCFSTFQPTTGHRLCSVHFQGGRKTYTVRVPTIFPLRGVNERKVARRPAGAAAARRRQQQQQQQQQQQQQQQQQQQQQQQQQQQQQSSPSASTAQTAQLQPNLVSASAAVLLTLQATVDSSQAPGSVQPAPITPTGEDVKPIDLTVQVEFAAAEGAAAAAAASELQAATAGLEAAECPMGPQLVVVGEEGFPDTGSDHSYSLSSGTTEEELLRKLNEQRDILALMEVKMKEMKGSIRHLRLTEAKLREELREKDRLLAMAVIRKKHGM
UniProt Q9UKS7: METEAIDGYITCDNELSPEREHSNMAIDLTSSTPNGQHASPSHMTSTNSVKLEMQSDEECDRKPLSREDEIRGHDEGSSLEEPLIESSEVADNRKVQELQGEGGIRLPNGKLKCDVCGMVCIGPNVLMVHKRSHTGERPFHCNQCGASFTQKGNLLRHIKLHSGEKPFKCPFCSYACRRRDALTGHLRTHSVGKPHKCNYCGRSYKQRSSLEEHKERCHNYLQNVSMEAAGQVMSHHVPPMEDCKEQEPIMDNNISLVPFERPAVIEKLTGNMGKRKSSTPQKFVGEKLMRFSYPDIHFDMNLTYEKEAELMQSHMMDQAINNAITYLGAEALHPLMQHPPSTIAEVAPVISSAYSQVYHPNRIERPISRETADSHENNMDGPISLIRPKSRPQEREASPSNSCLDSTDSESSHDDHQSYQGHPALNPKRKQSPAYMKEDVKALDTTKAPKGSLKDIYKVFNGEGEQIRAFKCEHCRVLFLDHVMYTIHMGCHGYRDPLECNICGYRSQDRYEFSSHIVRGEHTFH
UniProt P51610: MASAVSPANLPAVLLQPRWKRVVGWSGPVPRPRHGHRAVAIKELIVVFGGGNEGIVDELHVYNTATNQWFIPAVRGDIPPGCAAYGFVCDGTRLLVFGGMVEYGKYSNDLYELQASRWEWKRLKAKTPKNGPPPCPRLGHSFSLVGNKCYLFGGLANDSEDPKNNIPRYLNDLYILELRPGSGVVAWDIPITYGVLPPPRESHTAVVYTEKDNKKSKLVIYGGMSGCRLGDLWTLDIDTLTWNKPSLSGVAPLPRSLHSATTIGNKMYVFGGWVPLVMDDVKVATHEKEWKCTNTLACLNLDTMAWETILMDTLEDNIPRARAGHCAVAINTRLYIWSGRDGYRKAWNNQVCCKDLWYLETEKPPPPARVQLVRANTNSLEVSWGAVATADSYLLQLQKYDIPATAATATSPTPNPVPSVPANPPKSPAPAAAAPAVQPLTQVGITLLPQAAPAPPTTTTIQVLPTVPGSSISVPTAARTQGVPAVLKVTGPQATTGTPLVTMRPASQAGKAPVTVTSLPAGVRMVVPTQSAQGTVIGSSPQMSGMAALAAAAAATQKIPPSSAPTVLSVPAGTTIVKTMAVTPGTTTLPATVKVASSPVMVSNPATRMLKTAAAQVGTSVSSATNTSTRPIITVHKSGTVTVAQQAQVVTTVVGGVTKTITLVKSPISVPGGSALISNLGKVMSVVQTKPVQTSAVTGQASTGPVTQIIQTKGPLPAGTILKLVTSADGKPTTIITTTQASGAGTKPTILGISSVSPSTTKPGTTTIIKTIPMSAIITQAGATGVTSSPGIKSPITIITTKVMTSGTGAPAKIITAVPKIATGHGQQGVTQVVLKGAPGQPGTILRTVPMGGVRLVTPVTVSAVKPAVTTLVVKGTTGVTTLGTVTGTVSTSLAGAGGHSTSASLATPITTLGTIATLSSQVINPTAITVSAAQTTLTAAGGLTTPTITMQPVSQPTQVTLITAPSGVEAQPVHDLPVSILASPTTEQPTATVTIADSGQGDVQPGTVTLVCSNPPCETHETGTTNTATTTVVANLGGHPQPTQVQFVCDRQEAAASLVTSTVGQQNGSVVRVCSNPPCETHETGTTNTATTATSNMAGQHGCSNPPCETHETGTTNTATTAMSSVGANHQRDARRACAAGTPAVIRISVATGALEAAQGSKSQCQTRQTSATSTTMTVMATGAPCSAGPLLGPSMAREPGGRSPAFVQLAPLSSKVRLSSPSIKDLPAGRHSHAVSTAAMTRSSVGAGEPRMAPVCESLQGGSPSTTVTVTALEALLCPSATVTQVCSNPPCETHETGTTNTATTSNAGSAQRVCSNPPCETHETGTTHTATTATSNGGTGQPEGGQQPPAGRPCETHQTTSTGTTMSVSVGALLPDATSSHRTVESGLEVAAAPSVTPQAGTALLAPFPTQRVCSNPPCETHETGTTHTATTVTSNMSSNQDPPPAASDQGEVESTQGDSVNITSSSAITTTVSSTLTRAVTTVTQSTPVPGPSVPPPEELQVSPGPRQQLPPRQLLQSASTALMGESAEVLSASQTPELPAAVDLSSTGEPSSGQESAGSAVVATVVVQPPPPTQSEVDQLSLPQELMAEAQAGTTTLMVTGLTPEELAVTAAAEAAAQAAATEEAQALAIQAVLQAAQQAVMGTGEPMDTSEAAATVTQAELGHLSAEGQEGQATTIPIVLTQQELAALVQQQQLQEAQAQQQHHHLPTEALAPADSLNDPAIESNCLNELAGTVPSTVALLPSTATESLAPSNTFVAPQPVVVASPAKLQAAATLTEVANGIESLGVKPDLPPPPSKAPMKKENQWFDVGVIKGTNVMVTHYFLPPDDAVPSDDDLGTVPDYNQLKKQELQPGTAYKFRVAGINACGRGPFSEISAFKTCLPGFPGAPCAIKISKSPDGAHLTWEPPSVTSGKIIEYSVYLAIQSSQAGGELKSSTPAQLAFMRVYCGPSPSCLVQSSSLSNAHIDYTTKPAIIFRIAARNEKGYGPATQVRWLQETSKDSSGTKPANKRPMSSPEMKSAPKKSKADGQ
UniProt Q9UKT9: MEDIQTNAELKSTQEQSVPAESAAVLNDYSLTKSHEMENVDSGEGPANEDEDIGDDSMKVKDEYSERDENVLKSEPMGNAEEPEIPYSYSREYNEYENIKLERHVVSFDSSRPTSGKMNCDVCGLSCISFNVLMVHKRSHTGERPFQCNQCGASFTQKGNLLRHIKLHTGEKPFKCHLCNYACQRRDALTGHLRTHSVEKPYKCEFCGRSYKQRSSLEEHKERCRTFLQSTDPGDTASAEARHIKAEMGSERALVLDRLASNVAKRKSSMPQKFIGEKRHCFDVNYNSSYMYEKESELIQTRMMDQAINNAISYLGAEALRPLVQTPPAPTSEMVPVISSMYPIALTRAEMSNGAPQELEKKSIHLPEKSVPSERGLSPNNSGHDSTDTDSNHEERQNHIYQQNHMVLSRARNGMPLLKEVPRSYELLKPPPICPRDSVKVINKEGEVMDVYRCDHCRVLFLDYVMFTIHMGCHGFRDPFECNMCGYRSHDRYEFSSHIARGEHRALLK

For at least one entry, the source does not settle the construct or the ends of the probe. Where cells or extracts were used, other partners may take part. For some assays here: The comparison behind a weaker result is the experiment's own reference, which may not be listed here. At least one verdict was read from the data and is not stated in words by the source. For some assays here: Tags and fusion partners may be left off the protein sequences shown. For some assays here: The direction of at least one scale is not stated here.

Assay in all cases: pull-down MS
Data set [1] addresses PARP-1 (Homo sapiens (Raji)) (UniProt P09874). The note with it: Raji nuclear extract; 5' biotin on sense strand; DNA immobilised on streptavidin beads in 20 mM Tris-HCl pH 8.0, 200 mM NaCl, 0.5 mM EDTA, 0.03% NP40; protein in an extract.
The target of data set [2] is T1, NFKB1 (NF-kappa B p105/p50) (Homo sapiens (Raji, Molt4, HEK293)) (UniProt P19838).
T1 sequence (looked up, limits assumed): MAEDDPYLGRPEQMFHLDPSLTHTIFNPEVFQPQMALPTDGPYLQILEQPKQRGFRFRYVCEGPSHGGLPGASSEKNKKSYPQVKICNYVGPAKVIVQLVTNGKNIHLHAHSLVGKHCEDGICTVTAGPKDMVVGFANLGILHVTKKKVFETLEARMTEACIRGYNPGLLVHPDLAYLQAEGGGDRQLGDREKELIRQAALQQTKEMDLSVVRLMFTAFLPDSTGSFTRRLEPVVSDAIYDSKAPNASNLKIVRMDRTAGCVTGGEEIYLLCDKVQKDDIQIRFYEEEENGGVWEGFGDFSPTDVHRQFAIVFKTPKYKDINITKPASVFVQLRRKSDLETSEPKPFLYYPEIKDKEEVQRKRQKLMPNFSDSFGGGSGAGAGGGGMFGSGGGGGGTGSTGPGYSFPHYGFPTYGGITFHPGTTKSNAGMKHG
The note with it: Raji nuclear extract, 5' biotin on sense strand, DNA immobilised on streptavidin beads in 20 mM Tris-HCl pH 8.0, 200 mM NaCl, 0.5 mM EDTA, 0.03% NP40, protein in an extract.

In data set [3] the target is THAP11 (Homo sapiens (Raji, Molt4)) (UniProt Q96EK4). The note with it: Raji nuclear extract; 5' biotin on sense strand; DNA immobilised on streptavidin beads in 20 mM Tris-HCl pH 8.0, 200 mM NaCl, 0.5 mM EDTA, 0.03% NP40; protein in an extract.
The target of data set [4] is NFKB2 (NF-kappa B p100/p52) (Homo sapiens (Raji)) (UniProt Q00653). Conditions: Raji nuclear extract; 5' biotin on sense strand; DNA immobilised on streptavidin beads in 20 mM Tris-HCl pH 8.0, 200 mM NaCl, 0.5 mM EDTA, 0.03% NP40; protein in an extract.
The target in data set [5] is Helios (Homo sapiens (Raji)) (UniProt Q9UKS7). The note with it: Raji nuclear extract; 5' biotin on sense strand; DNA immobilised on streptavidin beads in 20 mM Tris-HCl pH 8.0, 200 mM NaCl, 0.5 mM EDTA, 0.03% NP40; protein in an extract.
Data set [6] addresses HCF-1 (Homo sapiens (Raji, Molt4)) (UniProt P51610). The note with it: Raji nuclear extract; 5' biotin on sense strand; DNA immobilised on streptavidin beads in 20 mM Tris-HCl pH 8.0, 200 mM NaCl, 0.5 mM EDTA, 0.03% NP40; protein in an extract.
Data set [7] has as its target Aiolos (Homo sapiens (Raji)) (UniProt Q9UKT9). The note with it: Raji nuclear extract; 5' biotin on sense strand; DNA immobilised on streptavidin beads in 20 mM Tris-HCl pH 8.0, 200 mM NaCl, 0.5 mM EDTA, 0.03% NP40; protein in an extract.
Data set [8] addresses Ikaros (Homo sapiens (Raji, Molt4 nuclear extract)) (UniProt Q13422). The note with it: 5' biotin on sense strand, DNA immobilised on streptavidin beads in 20 mM Tris-HCl pH 8.0, 200 mM NaCl, 0.5 mM EDTA, 0.03% NP40, protein in an extract.

“CAAAACTGCAGGCAACTAGAACTACATTTCCCGGCGTGATTTGCTGCGGAACGAACTACATCTCCCGGCAGGCTGCG (double strand) [Tandem M4 WT]”: the binding signal (SILAC ratio WT/MT) in data set [1] was 1; in data set [2] (indirect), 19; in data set [3], 11.

For “CAAAACTGCAGGCAACTAGACATCAATTTCTGGGCGTGATTTGCTGCGGAACGACATCAATCTCTGGGCAGGCTGCG (double strand) [Tandem M4 MT]”, the binding result is on record as “binds” in data set [1]; “binds more weakly” in data set [2]; “binds more weakly” in data set [3]; “binds more weakly” in data set [4]; “binds more weakly” in data set [5]; “binds more weakly” in data set [6]. In addition, the binding result in data set [7] and in data set [8] was “binds more weakly” throughout.
